Some results were stated once for a whole list of compounds, not compound by compound.
Test system: HEp-2 cells
Test: Binding of biotinylated CCL5 peptides to HEp-2 cell monolayers (ELISA)
Parameters: species or system human
Conditions: FIG. 3, viable HEp-2 cells at 4° C.
Protocol: Interaction of CCL5 peptides with HEp-2 cells. An ELISA was used to assess the relative binding of synthetic peptides to HEp-2 cell monolayers. In brief, 96-well plates (Falcon) were seeded with 3×10^4 HEp-2 cells per well in 0.2 ml of complete medium. After overnight incubation (37° C., 5% CO2), the monolayers were cooled on ice for approximately 15 minutes. The biotinylated peptides were added to duplicate wells in ascending doses from 0.49 μg to 500 μg per ml DMEM (supplemented with 1% FBS, 2% penicillin/streptomycin, and 2 mM L-glutamine) and incubated at 4° C. for 1 hour. The monolayers were then fixed (20 minutes at RT) with 80% methanol (J T Baker; Phillipsburg, N.J.). […] Thereafter, the monolayers were incubated (1 hour at RT) with streptavidin-HRP (Zymed; San Francisco, Calif.). The wells were developed with TMB One-Step Substrate Solution (DAKO; Carpinteria, Calif.). Optical density was determined (450 nm, reference at 550 nm) with a Molecular Devices Versamax microplate reader (Sunnyvale, Calif.).

Sequence | binding to the epithelial cell monolayer (in words)
EKKWVREYINSLEMS (listed as Homo sapiens) [Peptide 9, CCL5 amino acids 54-68] | did not readily bind to the monolayer
TRKNRQVCANPEKKW (listed as Homo sapiens) [Peptide 7, CCL5 amino acids 43-57] | did not readily bind to the monolayer
CANPEKKWVREYINS (listed as Homo sapiens) [Peptide 8, CCL5 amino acids 50-64] | did not readily bind to the monolayer
